From paper PMC9079088, “FBXO2 targets glycosylated SUN2 for ubiquitination and degradation to promote ovarian cancer development” (Cell Death & Disease, 2022) come the findings set out here.

By UniProt entry, the sequences of proteins in these tests, tags left out.
UniProt Q9UH99: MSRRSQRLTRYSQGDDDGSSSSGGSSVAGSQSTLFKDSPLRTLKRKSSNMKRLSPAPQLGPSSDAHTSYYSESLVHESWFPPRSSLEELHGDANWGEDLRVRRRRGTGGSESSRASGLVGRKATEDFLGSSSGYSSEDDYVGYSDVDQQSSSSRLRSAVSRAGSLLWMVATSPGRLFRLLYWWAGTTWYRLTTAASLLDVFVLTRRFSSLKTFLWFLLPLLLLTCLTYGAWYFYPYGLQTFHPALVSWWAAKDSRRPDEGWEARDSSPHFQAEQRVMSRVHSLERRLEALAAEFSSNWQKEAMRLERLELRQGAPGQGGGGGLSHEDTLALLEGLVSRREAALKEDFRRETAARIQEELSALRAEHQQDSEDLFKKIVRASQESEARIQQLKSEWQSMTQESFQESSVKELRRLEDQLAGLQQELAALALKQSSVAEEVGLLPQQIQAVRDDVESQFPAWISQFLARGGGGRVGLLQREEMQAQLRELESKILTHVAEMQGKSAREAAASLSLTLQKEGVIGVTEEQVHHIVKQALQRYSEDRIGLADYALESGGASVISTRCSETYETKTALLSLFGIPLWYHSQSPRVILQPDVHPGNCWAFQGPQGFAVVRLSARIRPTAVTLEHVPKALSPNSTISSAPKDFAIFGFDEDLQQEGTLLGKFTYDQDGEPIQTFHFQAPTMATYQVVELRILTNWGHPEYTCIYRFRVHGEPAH

This assay addresses SUN2 (endogenous, A2780) (human (endogenous in A2780)) (UniProt Q9UH99). The experiment in a line: co-IP; A2780 cell lysates, MG132 treatment; immunoprecipitation with IgG or anti-SUN2 antibody; immunoblotting. For orientation: Immunoblotting shows a protein as a band on a membrane.

These are yes or no findings as the source states them, for the method shown. Binding seen in cells or lysates may run through a third protein. Some binding calls cover weakened binding; strength is not graded here.

B1: GST-FBXO2 WT (natural protein, human, UniProt Q9UK22 1-296, looked up)
chain: MDGDGDPESVGQPEEASPEEQPEEASAEEERPEDQQEEEAAAAAAYLDELPEPLLLRVLAALPAAELVQACRLVCLRWKELVDGAPLWLLKCQQEGLVPEGGVEEERDHWQQFYFLSKRRRNLLRNPCGEEDLEGWCDVEHGGDGWRVEELPGDSGVEFTHDESVKKYFASSFEWCRKAQVIDLQAEGYWEELLDTTQPAIVVKDWYSGRSDAGCLYELTVKLLSEHENVLAEFSSGQVAVPQDSDGGGWMEISHTFTDYGPGVRFVRFEHGGQDSVYWKGWFGARVTNSSVWVEP
notes: F-box protein FBXO2, human; also called GST tagged FBXO2
In the case of B1, the binding result was “binds”.

B2: FBXO16 (endogenous, A2780) (protein, UniProt Q8IX29 1-292)
chain: MMAFAPPKNTDGPKMQTKMSTWTPLNHQLLNDRVFEERRALLGKWFDKWTDSQRRRILTGLLERCSLSQQKFCCRKLQEKIPAEALDFTTKLPRVLSLYIFSFLDPRSLCRCAQVCWHWKNLAELDQLWMLKCLRFNWYINFSPTPFEQGIWKKHYIQMVKELHITKPKTPPKDGFVIADVQLVTSNSPEEKQSPLSAFRSSSSLRKKNNSGEKALPPWRSSDKHPTDIIRFNYLDNRDPMETVQQGRRKRNQMTPDFSRQSHDKKNKLQDRTRLRKAQSMMSRRNPFPLCP
Consider B2, for which the binding entry is reported as “no binding”.
